The record followed here is article PMC7019889.

Assay [1] has as its target T1, HA-tagged USP29 (ubiquitin-specific peptidase 29) (UniProt Q9HBJ7).
T1 sequence: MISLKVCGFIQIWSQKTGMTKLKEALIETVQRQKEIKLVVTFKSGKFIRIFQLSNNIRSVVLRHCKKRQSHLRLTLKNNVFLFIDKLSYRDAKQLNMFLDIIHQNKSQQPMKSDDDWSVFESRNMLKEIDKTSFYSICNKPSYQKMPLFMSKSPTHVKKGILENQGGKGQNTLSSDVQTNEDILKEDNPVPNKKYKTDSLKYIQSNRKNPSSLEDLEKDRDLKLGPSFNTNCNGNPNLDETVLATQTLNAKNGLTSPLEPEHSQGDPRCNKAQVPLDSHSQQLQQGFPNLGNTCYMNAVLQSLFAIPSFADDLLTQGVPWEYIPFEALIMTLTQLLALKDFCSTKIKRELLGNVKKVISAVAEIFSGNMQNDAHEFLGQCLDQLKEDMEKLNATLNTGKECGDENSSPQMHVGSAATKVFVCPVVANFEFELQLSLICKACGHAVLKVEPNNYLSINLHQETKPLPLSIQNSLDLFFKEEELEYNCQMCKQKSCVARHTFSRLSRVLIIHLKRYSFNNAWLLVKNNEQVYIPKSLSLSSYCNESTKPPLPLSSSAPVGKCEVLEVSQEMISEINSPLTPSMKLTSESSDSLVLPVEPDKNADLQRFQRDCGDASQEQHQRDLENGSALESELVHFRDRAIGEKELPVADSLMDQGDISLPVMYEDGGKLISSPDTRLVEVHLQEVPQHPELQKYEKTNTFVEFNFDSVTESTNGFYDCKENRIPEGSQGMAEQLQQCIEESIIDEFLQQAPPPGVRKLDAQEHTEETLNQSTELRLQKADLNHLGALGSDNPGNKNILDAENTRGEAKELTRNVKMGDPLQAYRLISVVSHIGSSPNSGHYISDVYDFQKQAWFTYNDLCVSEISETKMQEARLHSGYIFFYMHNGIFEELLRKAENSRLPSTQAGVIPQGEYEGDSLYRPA
Kind of assay: co-IP; SH-SY5Y cells co-transfected with Flag-MYBBP1A and HA-USP29; lysis in RIPA buffer, lysate diluted 1:1 with PBS; immunoprecipitation with the indicated antibodies and protein A/G-agarose overnight at 4 °C, in both directions; immunoblot.

In assay [2] the target is T2, Flag-tagged MYBBP1A (160 kDa myb-binding protein, Myb-binding protein 1α) (UniProt Q9BQG0).
T2 sequence: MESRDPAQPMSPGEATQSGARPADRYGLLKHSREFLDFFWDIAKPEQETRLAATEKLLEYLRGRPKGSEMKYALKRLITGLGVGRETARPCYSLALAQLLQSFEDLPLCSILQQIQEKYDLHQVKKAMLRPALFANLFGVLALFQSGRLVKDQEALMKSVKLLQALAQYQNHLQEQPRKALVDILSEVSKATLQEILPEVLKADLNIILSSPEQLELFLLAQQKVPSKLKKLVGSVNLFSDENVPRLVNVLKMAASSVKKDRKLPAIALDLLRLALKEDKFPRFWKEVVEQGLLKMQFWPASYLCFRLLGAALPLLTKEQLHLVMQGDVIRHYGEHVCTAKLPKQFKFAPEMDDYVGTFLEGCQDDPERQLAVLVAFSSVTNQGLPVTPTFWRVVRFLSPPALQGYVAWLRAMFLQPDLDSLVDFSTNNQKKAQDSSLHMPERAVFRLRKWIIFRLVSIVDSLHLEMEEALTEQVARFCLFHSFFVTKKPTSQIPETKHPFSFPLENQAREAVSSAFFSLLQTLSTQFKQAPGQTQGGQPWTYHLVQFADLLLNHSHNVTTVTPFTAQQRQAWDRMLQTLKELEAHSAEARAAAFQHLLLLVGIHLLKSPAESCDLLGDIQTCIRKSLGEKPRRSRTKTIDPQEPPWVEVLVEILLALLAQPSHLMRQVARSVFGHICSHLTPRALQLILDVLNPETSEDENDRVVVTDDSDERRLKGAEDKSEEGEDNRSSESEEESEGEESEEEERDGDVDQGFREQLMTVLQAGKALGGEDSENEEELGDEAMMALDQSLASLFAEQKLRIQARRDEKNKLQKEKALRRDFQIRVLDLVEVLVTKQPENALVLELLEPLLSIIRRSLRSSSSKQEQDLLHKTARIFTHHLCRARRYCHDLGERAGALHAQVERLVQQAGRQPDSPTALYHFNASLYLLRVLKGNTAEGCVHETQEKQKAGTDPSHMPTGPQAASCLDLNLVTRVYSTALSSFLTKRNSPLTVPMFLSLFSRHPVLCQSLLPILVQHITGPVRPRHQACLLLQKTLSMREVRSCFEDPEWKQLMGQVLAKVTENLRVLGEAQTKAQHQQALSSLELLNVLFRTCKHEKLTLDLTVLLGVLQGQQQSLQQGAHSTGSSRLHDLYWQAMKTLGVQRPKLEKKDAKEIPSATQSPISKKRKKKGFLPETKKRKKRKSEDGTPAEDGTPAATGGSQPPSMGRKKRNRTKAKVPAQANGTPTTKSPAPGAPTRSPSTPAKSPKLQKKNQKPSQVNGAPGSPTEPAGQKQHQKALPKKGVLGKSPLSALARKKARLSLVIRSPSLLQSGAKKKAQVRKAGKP
The description is as above.

Assay [3] concerns the target T3, endogenous MYBBP1A in SH-SY5Y cells (human (endogenous in SH-SY5Y)) (UniProt Q9BQG0).
T3 sequence: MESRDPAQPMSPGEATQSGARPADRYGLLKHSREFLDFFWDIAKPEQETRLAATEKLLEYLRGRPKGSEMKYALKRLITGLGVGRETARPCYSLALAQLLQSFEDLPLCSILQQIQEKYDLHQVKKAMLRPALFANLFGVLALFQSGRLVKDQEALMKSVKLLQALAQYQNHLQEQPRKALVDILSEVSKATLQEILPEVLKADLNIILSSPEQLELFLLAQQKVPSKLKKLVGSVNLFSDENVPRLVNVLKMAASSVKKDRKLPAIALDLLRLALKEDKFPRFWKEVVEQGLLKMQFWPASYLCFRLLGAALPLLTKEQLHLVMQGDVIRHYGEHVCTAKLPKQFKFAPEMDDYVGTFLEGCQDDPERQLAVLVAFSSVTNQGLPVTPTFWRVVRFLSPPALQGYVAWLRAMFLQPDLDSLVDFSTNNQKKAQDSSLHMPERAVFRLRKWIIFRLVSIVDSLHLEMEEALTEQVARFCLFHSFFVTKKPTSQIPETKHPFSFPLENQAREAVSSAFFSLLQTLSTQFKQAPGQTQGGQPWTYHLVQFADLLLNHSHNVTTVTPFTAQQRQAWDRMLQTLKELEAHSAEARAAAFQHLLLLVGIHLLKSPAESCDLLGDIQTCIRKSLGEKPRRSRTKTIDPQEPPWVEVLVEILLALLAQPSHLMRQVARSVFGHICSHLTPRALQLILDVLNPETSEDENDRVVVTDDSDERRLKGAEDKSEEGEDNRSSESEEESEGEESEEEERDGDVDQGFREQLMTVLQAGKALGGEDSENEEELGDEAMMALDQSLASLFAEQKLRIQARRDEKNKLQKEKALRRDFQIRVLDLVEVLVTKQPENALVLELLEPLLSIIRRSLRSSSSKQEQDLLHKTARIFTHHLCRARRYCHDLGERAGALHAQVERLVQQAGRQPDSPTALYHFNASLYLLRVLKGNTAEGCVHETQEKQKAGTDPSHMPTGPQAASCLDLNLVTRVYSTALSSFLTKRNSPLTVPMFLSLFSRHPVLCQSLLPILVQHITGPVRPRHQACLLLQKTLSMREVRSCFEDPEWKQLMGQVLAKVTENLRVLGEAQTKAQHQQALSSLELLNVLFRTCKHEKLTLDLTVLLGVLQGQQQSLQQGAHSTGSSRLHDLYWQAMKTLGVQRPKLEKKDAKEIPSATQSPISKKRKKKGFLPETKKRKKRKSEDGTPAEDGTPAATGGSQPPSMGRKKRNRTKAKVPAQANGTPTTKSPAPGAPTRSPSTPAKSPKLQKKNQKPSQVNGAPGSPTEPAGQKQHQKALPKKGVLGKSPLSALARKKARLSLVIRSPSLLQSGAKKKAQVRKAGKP
Put plainly: co-IP; endogenous proteins in SH-SY5Y lysate (RIPA buffer); endogenous MYBBP1A immunoprecipitated, rabbit IgG as negative control; immunoblot.

Results are given in words; binding and its absence hold for the method and conditions named. Binding seen in cells or lysates may run through a third protein. Some entries that bind do so weakly or less than the wild type. For part of these data: Sequences can lack the tags named with a protein.

B1: Flag-tagged MYBBP1A (160 kDa myb-binding protein, Myb-binding protein 1α) (protein, UniProt Q9BQG0 1-1328)
chain: MESRDPAQPMSPGEATQSGARPADRYGLLKHSREFLDFFWDIAKPEQETRLAATEKLLEYLRGRPKGSEMKYALKRLITGLGVGRETARPCYSLALAQLLQSFEDLPLCSILQQIQEKYDLHQVKKAMLRPALFANLFGVLALFQSGRLVKDQEALMKSVKLLQALAQYQNHLQEQPRKALVDILSEVSKATLQEILPEVLKADLNIILSSPEQLELFLLAQQKVPSKLKKLVGSVNLFSDENVPRLVNVLKMAASSVKKDRKLPAIALDLLRLALKEDKFPRFWKEVVEQGLLKMQFWPASYLCFRLLGAALPLLTKEQLHLVMQGDVIRHYGEHVCTAKLPKQFKFAPEMDDYVGTFLEGCQDDPERQLAVLVAFSSVTNQGLPVTPTFWRVVRFLSPPALQGYVAWLRAMFLQPDLDSLVDFSTNNQKKAQDSSLHMPERAVFRLRKWIIFRLVSIVDSLHLEMEEALTEQVARFCLFHSFFVTKKPTSQIPETKHPFSFPLENQAREAVSSAFFSLLQTLSTQFKQAPGQTQGGQPWTYHLVQFADLLLNHSHNVTTVTPFTAQQRQAWDRMLQTLKELEAHSAEARAAAFQHLLLLVGIHLLKSPAESCDLLGDIQTCIRKSLGEKPRRSRTKTIDPQEPPWVEVLVEILLALLAQPSHLMRQVARSVFGHICSHLTPRALQLILDVLNPETSEDENDRVVVTDDSDERRLKGAEDKSEEGEDNRSSESEEESEGEESEEEERDGDVDQGFREQLMTVLQAGKALGGEDSENEEELGDEAMMALDQSLASLFAEQKLRIQARRDEKNKLQKEKALRRDFQIRVLDLVEVLVTKQPENALVLELLEPLLSIIRRSLRSSSSKQEQDLLHKTARIFTHHLCRARRYCHDLGERAGALHAQVERLVQQAGRQPDSPTALYHFNASLYLLRVLKGNTAEGCVHETQEKQKAGTDPSHMPTGPQAASCLDLNLVTRVYSTALSSFLTKRNSPLTVPMFLSLFSRHPVLCQSLLPILVQHITGPVRPRHQACLLLQKTLSMREVRSCFEDPEWKQLMGQVLAKVTENLRVLGEAQTKAQHQQALSSLELLNVLFRTCKHEKLTLDLTVLLGVLQGQQQSLQQGAHSTGSSRLHDLYWQAMKTLGVQRPKLEKKDAKEIPSATQSPISKKRKKKGFLPETKKRKKRKSEDGTPAEDGTPAATGGSQPPSMGRKKRNRTKAKVPAQANGTPTTKSPAPGAPTRSPSTPAKSPKLQKKNQKPSQVNGAPGSPTEPAGQKQHQKALPKKGVLGKSPLSALARKKARLSLVIRSPSLLQSGAKKKAQVRKAGKP
Take B1: the binding entry in assay [1] is given as “binds”.

B2: HA-tagged USP29 (ubiquitin-specific peptidase 29) (enzyme, UniProt Q9HBJ7 1-922)
chain: MISLKVCGFIQIWSQKTGMTKLKEALIETVQRQKEIKLVVTFKSGKFIRIFQLSNNIRSVVLRHCKKRQSHLRLTLKNNVFLFIDKLSYRDAKQLNMFLDIIHQNKSQQPMKSDDDWSVFESRNMLKEIDKTSFYSICNKPSYQKMPLFMSKSPTHVKKGILENQGGKGQNTLSSDVQTNEDILKEDNPVPNKKYKTDSLKYIQSNRKNPSSLEDLEKDRDLKLGPSFNTNCNGNPNLDETVLATQTLNAKNGLTSPLEPEHSQGDPRCNKAQVPLDSHSQQLQQGFPNLGNTCYMNAVLQSLFAIPSFADDLLTQGVPWEYIPFEALIMTLTQLLALKDFCSTKIKRELLGNVKKVISAVAEIFSGNMQNDAHEFLGQCLDQLKEDMEKLNATLNTGKECGDENSSPQMHVGSAATKVFVCPVVANFEFELQLSLICKACGHAVLKVEPNNYLSINLHQETKPLPLSIQNSLDLFFKEEELEYNCQMCKQKSCVARHTFSRLSRVLIIHLKRYSFNNAWLLVKNNEQVYIPKSLSLSSYCNESTKPPLPLSSSAPVGKCEVLEVSQEMISEINSPLTPSMKLTSESSDSLVLPVEPDKNADLQRFQRDCGDASQEQHQRDLENGSALESELVHFRDRAIGEKELPVADSLMDQGDISLPVMYEDGGKLISSPDTRLVEVHLQEVPQHPELQKYEKTNTFVEFNFDSVTESTNGFYDCKENRIPEGSQGMAEQLQQCIEESIIDEFLQQAPPPGVRKLDAQEHTEETLNQSTELRLQKADLNHLGALGSDNPGNKNILDAENTRGEAKELTRNVKMGDPLQAYRLISVVSHIGSSPNSGHYISDVYDFQKQAWFTYNDLCVSEISETKMQEARLHSGYIFFYMHNGIFEELLRKAENSRLPSTQAGVIPQGEYEGDSLYRPA
B2: the binding result in assay [2] is “binds”.

B3: endogenous USP29 in SH-SY5Y cells (enzyme, UniProt Q9HBJ7 1-922)
chain: MISLKVCGFIQIWSQKTGMTKLKEALIETVQRQKEIKLVVTFKSGKFIRIFQLSNNIRSVVLRHCKKRQSHLRLTLKNNVFLFIDKLSYRDAKQLNMFLDIIHQNKSQQPMKSDDDWSVFESRNMLKEIDKTSFYSICNKPSYQKMPLFMSKSPTHVKKGILENQGGKGQNTLSSDVQTNEDILKEDNPVPNKKYKTDSLKYIQSNRKNPSSLEDLEKDRDLKLGPSFNTNCNGNPNLDETVLATQTLNAKNGLTSPLEPEHSQGDPRCNKAQVPLDSHSQQLQQGFPNLGNTCYMNAVLQSLFAIPSFADDLLTQGVPWEYIPFEALIMTLTQLLALKDFCSTKIKRELLGNVKKVISAVAEIFSGNMQNDAHEFLGQCLDQLKEDMEKLNATLNTGKECGDENSSPQMHVGSAATKVFVCPVVANFEFELQLSLICKACGHAVLKVEPNNYLSINLHQETKPLPLSIQNSLDLFFKEEELEYNCQMCKQKSCVARHTFSRLSRVLIIHLKRYSFNNAWLLVKNNEQVYIPKSLSLSSYCNESTKPPLPLSSSAPVGKCEVLEVSQEMISEINSPLTPSMKLTSESSDSLVLPVEPDKNADLQRFQRDCGDASQEQHQRDLENGSALESELVHFRDRAIGEKELPVADSLMDQGDISLPVMYEDGGKLISSPDTRLVEVHLQEVPQHPELQKYEKTNTFVEFNFDSVTESTNGFYDCKENRIPEGSQGMAEQLQQCIEESIIDEFLQQAPPPGVRKLDAQEHTEETLNQSTELRLQKADLNHLGALGSDNPGNKNILDAENTRGEAKELTRNVKMGDPLQAYRLISVVSHIGSSPNSGHYISDVYDFQKQAWFTYNDLCVSEISETKMQEARLHSGYIFFYMHNGIFEELLRKAENSRLPSTQAGVIPQGEYEGDSLYRPA
Regarding B3, the binding result in assay [3] is reported as “binds”.
